Measurements from the supplement of paper PMC6411743.
± gives the standard deviation of the averaged measurements. Only a part is listed here, and it is no random draw. Most entries show no effect beyond the scatter of the controls.

Sequences of proteins named here, by UniProt entry; tags and fusion partners are left off. A change or cut given only in a name is not applied to a line headed by its entry.
UniProt Q9BY50: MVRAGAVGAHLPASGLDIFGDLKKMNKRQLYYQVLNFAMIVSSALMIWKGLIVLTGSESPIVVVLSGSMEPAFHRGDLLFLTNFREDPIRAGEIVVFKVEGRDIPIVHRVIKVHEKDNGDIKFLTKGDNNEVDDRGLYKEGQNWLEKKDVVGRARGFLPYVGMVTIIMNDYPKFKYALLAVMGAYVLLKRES
UniProt Q15369, whole entry: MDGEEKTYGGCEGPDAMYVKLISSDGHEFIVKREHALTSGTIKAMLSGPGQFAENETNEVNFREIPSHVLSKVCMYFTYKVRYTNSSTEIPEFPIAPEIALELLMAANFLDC
UniProt Q6P1N9: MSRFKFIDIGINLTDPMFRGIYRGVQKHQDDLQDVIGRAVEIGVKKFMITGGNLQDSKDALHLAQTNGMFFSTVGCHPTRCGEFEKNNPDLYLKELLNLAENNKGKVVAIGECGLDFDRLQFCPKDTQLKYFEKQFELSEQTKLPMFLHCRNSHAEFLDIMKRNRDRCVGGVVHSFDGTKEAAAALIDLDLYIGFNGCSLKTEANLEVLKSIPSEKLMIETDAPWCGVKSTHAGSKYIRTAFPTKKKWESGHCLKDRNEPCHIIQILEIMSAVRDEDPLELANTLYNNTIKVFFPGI
UniProt P51617, whole entry, looked up: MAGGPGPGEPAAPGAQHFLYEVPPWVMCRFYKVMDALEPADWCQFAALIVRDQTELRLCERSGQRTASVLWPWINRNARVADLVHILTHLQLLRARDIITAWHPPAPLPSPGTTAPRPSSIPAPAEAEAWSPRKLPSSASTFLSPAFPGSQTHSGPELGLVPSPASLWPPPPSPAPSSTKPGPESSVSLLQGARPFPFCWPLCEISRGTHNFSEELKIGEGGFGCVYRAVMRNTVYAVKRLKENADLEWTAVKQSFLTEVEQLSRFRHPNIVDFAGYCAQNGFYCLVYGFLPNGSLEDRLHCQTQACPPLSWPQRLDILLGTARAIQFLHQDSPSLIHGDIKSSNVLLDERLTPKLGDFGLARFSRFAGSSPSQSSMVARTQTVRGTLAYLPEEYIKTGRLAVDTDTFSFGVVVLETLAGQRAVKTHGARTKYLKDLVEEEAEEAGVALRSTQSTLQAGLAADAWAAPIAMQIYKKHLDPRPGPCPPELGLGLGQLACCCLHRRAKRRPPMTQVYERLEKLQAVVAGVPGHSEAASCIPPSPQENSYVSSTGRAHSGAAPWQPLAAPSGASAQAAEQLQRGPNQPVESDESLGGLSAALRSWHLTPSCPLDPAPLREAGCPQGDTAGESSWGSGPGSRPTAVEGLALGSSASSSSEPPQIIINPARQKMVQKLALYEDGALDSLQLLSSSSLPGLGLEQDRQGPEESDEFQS
UniProt Q8NG11: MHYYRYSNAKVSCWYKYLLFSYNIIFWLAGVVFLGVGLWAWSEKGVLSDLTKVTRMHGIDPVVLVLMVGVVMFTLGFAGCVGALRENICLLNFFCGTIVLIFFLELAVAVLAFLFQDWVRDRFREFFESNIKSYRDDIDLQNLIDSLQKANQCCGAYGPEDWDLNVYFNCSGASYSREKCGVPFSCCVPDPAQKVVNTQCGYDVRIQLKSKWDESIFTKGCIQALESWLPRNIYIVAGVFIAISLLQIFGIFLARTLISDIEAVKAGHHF
UniProt Q9Y2K5: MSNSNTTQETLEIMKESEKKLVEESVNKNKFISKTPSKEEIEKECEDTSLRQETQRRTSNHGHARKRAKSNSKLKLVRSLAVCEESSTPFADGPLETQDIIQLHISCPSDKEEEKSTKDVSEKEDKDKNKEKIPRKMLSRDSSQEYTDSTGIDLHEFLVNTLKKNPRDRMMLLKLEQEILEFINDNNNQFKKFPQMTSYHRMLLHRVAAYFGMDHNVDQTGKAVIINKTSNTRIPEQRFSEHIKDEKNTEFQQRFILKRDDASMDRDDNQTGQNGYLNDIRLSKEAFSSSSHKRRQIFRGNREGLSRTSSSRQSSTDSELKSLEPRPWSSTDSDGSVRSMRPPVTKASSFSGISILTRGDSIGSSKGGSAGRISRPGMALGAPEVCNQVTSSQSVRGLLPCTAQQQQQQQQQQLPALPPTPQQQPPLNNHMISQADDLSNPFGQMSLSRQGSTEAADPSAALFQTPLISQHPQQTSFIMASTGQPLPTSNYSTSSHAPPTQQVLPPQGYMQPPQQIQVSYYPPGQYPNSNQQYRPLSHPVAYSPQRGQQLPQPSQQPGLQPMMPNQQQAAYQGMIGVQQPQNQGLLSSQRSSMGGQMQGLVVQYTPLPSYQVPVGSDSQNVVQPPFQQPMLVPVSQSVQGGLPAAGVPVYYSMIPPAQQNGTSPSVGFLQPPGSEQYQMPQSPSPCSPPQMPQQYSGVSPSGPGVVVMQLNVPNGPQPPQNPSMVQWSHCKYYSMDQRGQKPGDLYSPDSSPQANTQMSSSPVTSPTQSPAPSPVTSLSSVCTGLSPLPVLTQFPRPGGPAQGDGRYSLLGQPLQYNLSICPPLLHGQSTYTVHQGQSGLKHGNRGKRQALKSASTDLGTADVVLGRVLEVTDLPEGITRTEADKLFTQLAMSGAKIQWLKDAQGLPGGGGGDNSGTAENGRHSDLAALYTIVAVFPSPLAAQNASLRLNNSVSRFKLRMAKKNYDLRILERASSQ
UniProt Q14BN4: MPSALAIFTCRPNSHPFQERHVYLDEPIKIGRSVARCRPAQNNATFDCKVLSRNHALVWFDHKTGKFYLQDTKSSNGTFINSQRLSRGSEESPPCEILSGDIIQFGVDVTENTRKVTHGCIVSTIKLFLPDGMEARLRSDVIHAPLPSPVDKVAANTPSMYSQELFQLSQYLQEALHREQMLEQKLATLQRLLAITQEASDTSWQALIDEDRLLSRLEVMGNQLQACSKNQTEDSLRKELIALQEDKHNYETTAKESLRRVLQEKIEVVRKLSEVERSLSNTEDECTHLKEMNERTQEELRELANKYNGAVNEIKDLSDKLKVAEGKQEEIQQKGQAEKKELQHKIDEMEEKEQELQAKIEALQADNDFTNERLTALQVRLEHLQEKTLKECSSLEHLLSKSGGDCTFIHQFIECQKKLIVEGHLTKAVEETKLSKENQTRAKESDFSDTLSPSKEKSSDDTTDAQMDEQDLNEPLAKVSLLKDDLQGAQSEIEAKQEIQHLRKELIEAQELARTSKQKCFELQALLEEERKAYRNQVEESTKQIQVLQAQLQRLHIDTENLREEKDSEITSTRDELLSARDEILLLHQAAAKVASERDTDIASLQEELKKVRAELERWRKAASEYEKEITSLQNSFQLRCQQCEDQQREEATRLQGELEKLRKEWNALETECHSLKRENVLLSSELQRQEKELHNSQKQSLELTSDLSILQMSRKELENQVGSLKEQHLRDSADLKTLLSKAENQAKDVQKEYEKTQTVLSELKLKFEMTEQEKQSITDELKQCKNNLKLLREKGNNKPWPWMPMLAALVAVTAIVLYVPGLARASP
UniProt Q96EI5: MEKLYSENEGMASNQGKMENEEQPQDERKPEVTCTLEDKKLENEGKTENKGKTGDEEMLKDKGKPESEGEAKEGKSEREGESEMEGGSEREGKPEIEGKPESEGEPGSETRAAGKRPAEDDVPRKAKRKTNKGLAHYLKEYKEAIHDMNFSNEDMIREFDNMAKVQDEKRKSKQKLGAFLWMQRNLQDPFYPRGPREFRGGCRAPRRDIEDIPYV
UniProt P62873, whole entry: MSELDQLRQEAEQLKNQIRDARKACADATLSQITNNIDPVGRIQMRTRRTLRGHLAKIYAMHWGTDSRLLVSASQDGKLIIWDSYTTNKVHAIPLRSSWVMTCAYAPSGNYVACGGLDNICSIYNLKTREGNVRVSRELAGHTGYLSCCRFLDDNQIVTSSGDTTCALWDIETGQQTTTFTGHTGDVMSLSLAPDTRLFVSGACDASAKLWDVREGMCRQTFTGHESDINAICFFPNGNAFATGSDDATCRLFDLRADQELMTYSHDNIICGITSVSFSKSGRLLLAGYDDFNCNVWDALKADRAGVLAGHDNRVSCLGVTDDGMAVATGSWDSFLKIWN
UniProt Q96GF1: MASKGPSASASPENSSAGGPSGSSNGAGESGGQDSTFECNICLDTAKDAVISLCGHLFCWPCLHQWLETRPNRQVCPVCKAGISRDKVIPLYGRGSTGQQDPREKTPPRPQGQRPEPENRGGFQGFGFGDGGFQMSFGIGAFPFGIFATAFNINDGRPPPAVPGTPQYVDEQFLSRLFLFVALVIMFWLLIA
UniProt Q5TEU4: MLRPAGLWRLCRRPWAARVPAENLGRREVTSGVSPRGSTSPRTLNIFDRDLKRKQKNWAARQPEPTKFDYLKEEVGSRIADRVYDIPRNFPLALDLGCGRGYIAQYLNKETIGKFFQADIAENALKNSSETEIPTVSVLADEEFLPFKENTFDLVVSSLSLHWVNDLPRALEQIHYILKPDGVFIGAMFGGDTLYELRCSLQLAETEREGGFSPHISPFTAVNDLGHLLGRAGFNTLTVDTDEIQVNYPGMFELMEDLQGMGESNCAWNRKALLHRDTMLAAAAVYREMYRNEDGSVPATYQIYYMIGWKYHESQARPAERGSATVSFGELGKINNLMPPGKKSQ
UniProt Q16891: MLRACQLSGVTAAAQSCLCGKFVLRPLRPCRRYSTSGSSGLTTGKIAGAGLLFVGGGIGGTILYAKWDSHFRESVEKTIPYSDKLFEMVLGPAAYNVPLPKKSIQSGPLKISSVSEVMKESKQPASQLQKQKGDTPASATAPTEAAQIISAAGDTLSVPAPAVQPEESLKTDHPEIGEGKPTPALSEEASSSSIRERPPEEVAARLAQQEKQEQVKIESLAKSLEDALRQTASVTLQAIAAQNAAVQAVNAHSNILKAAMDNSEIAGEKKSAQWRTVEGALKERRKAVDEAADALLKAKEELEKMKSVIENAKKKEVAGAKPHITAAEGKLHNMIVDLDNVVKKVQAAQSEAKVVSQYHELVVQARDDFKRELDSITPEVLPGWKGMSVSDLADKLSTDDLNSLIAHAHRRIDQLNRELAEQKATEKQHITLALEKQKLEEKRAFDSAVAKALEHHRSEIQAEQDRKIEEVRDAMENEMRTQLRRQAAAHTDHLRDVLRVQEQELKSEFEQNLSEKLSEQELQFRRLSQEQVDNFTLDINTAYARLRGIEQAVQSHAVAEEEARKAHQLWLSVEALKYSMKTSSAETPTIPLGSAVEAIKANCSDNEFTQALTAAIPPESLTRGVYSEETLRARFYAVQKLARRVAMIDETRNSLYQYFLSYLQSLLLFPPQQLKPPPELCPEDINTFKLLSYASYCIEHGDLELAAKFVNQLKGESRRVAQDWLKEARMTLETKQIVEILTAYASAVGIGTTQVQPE
UniProt Q9UKY7: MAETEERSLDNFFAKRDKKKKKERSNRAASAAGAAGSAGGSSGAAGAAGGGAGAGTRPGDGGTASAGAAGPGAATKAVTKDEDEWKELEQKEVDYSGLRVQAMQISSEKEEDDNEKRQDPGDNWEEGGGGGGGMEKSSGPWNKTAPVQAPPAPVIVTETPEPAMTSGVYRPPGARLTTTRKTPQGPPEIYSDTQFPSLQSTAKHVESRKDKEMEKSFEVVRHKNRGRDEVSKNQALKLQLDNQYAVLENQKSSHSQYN
UniProt Q9NZK5: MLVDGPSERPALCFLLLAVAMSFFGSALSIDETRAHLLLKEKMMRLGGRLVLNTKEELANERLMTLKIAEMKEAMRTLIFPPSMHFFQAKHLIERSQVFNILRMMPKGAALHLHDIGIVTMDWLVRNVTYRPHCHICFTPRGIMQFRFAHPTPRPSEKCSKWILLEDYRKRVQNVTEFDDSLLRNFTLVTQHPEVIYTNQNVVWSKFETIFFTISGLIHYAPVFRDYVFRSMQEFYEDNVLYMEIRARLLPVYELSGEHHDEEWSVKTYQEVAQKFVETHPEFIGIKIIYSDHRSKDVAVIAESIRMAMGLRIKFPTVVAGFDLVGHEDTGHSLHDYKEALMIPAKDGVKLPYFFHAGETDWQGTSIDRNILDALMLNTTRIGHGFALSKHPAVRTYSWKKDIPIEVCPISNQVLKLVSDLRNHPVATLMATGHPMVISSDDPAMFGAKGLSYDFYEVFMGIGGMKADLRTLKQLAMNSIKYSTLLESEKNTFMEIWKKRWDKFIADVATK
UniProt Q5W0Z9: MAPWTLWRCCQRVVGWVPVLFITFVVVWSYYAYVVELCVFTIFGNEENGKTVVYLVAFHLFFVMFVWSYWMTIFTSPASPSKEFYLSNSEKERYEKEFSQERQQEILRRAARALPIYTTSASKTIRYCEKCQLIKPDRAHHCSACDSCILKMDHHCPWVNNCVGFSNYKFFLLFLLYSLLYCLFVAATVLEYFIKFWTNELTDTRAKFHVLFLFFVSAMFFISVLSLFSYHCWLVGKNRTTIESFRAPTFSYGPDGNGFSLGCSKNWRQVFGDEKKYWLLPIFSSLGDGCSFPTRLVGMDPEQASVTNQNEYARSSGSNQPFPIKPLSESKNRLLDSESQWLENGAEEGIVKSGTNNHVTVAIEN

Compound: Nc1ncnc2c1ncn2[C@@H]1O[C@H](COP(=O)(O)OP(=O)(O)NP(=O)(O)O)[C@@H](O)[C@H]1O [adenylyl imidodiphosphate]
Assay: NP40-soluble protein abundance relative to vehicle (solubility fold change) (ratio); higher = more soluble protein in presence of AMP-PNP
Settings: concentration: 0.5mM
Summary of the method: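 Across three independent experiments, values are fold changes against the detergent-processed vehicle for each replicate, based on vsn-normalised intensities. The samples were Jurkat crude lysate treated with eight concentrations (0.1 to 10 mM) for 10 min at room temperature and then 3 min at 37 °C. Lysate was solubilised with 0.8% NP40 and benzonase, ultracentrifuged, and the supernatant analysed by TMT-labelled LC-MS/MS.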

Question: With “B4DI03 and related entries (UniProt Q9BY50)” as the target, how does the NP40-soluble protein abundance read?
Answer: Its NP40-soluble protein abundance is 0.944 ± 0.026.

Question: With “E5RHG8 and related entries (UniProt Q15369)” as the target, how does the NP40-soluble protein abundance read?
Answer: The NP40-soluble protein abundance was 1.06 ± 0.052.

Question: For “E5RG17 and related entries (UniProt Q6P1N9)”, which NP40-soluble protein abundance is on record?
Answer: The NP40-soluble protein abundance was 0.981 ± 0.011.

Question: “D3YTB5 and related entries (UniProt P51617)” was tested. Which NP40-soluble protein abundance did it give?
Answer: The NP40-soluble protein abundance was 1.02 ± 0.036.

Question: Which NP40-soluble protein abundance does the source give for “A6NEP9 and related entries (UniProt Q8NG11)” here?
Answer: Its NP40-soluble protein abundance is 1.01 ± 0.054.

Question: B5MCU0 (UniProt Q9Y2K5) was tested. Which NP40-soluble protein abundance did it give?
Answer: The NP40-soluble protein abundance was 0.987 ± 0.016.

Question: “B7Z863 and related entries (UniProt Q14BN4)” was tested. Which NP40-soluble protein abundance did it give?
Answer: The NP40-soluble protein abundance was 0.989 ± 0.057.

Question: “A2RQR6 and related entries (UniProt Q96EI5)” was tested. Which NP40-soluble protein abundance did it give?
Answer: Its NP40-soluble protein abundance is 0.997 ± 0.025.

Question: For “B3KVK2 and related entries (UniProt P62873)”, which NP40-soluble protein abundance is on record?
Answer: The NP40-soluble protein abundance was 0.94 ± 0.035.

Question: With “A9X3U0 and related entries (UniProt Q96GF1)” as the target, how does the NP40-soluble protein abundance read?
Answer: The NP40-soluble protein abundance was 1.02 ± 0.029.

Question: Which NP40-soluble protein abundance does the source give for “A6NCE7 and related entries (UniProt Q9GZQ8+H3BTL1+A6NCE7)” here?
Answer: The NP40-soluble protein abundance was 1.01 ± 0.021.

Question: How did the NP40-soluble protein abundance turn out when “B3KR61 and related entries (UniProt Q5TEU4)” was run?
Answer: The NP40-soluble protein abundance was 1.05 ± 0.079.

Question: How did the NP40-soluble protein abundance turn out when “C9J406 and related entries (UniProt Q16891)” was run?
Answer: Its NP40-soluble protein abundance is 1 ± 0.055.

Question: Which NP40-soluble protein abundance does the source give for “C9JJ19 and related entries (UniProt P82930)” here?
Answer: Its NP40-soluble protein abundance is 1.03 ± 0.038.

Question: How did the NP40-soluble protein abundance turn out when “B7WPE2 and related entries (UniProt Q32P44)” was run?
Answer: Its NP40-soluble protein abundance is 0.985 ± 0.017.

Question: Which NP40-soluble protein abundance does the source give for “D6R9V8 and related entries (UniProt Q9UKY7)” here?
Answer: Its NP40-soluble protein abundance is 1.01 ± 0.076.

Question: For “B4E3Q4 and related entries (UniProt Q9NZK5)”, which NP40-soluble protein abundance is on record?
Answer: Its NP40-soluble protein abundance is 0.99 ± 0.041.

Question: Which NP40-soluble protein abundance does the source give for “B4DRN8 and related entries (UniProt Q5W0Z9)” here?
Answer: Its NP40-soluble protein abundance is 0.9967 ± 0.005.
